Laboratory results from patent US20070010474A1.
No constants are given. Whether binding was seen depends on the method and setting. Some results given as binding are weak or reduced against the parent protein; the word gives no strength.

Molecular target: T1, NF-kB p50 from nuclear extracts of mouse tissue (NC/Nga ears; SJL/J colon) (mouse), P25799
T1 chain: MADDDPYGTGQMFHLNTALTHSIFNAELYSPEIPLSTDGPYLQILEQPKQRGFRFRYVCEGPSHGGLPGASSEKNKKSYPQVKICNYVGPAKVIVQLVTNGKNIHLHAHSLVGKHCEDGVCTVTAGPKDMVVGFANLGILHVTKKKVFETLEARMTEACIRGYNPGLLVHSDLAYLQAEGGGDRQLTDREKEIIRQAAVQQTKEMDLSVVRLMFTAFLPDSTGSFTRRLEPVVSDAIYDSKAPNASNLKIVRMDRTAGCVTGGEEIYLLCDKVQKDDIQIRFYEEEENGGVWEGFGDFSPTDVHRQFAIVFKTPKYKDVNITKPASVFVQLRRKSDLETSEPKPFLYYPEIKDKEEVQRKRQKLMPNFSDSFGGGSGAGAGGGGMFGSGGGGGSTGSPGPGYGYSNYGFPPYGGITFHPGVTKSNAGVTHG
Test: EMSA band composition by antibody supershift, nuclear extract of NC/Nga mouse ears
Conditions: remark: other sources report otherwise

B1: NF-kB p65 from nuclear extracts of mouse tissue (NC/Nga ears; SJL/J colon), Q04207 1-549 (protein, UniProt Q04207 1-549, looked up)
chain: MDDLFPLIFPSEPAQASGPYVEIIEQPKQRGMRFRYKCEGRSAGSIPGERSTDTTKTHPTIKINGYTGPGTVRISLVTKDPPHRPHPHELVGKDCRDGYYEADLCPDRSIHSFQNLGIQCVKKRDLEQAISQRIQTNNNPFHVPIEEQRGDYDLNAVRLCFQVTVRDPAGRPLLLTPVLSHPIFDNRAPNTAELKICRVNRNSGSCLGGDEIFLLCDKVQKEDIEVYFTGPGWEARGSFSQADVHRQVAIVFRTPPYADPSLQAPVRVSMQLRRPSDRELSEPMEFQYLPDTDDRHRIEEKRKRTYETFKSIMKKSPFNGPTEPRPPTRRIAVPTRNSTSVPKPAPQPYTFPASLSTINFDEFSPMLLPSGQISNQALALAPSSAPVLAQTMVPSSAMVPLAQPPAPAPVLTPGPPQSLSAPVPKSTQAGEGTLSEALLHLQFDADEDLGALLGNSTDPGVFTDLASVDNSEFQQLLNQGVSMSHSTAEPMLMEYPEAITRLVTGSQRPPDPAPTPLGTSGLPNGLSGDEDFSSIADMDFSALLSQISS
In the case of B1, the binding is reported as “binds”.
